Our source for the binding values is paper PMC12077131.

Amino acid sequences for entries named in this document (tags omitted).
UniProt Q1DG91: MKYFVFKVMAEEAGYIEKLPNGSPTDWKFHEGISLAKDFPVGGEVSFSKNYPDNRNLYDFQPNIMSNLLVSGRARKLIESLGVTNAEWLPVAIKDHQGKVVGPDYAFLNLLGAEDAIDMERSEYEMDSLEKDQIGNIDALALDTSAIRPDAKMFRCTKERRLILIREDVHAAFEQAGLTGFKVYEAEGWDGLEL
UniProt Q1DG90: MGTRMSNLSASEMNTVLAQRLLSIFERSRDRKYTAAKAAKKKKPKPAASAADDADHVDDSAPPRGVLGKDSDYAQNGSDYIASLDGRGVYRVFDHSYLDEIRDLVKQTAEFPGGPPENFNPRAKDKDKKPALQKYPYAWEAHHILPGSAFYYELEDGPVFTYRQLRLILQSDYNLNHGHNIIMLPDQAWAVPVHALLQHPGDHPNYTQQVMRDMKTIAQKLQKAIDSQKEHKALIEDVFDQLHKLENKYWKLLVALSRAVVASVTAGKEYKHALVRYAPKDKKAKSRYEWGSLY

Results are given in words; binding and its absence hold for the method and conditions named. Binding seen in cells or lysates may run through a third protein. Some results given as binding are weak or reduced against the parent protein; the word gives no strength.

In this assay the target is MBP-tagged Imm1 (MXAN_0049) (Myxococcus xanthus DK1622) (UniProt Q1DG91). Description: pull-down.

For the substance “SUMO-tagged Toxin1 (MXAN_0050) (from UniProt Q1DG90 1-294) (enzyme)”, the binding result is reported as “binds”.
